Like-named read-outs stand apart in the source and are kept apart here. No constants are given. Whether binding was seen depends on the method and setting. Binding seen in cells or lysates may run through a third protein. A yes stands for co-enrichment or nearness to the bait. Other partners may have been found. Where a sequence is shown, tags or fusion partners need not be part of it.
T1: FLAG-tagged hTRMT2A CDM (catalytic death mutant) (human) (UniProt Q8IZ69)
T1 sequence: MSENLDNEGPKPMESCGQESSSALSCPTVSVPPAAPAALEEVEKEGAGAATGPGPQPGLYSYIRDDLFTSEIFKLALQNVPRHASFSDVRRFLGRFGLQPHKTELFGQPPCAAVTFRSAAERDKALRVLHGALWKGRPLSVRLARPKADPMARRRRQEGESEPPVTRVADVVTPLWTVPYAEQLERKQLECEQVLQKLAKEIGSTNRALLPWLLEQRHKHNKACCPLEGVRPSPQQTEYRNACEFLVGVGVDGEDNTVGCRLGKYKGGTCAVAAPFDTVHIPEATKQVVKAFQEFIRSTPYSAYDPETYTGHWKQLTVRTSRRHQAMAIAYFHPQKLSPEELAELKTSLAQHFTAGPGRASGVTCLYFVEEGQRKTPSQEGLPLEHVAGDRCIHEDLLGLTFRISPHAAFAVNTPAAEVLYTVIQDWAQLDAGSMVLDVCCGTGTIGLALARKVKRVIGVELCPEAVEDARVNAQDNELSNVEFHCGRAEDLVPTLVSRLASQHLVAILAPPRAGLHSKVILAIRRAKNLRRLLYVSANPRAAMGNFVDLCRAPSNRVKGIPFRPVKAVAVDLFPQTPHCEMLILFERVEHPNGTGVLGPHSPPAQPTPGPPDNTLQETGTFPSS

Sequences of proteins named here, by UniProt entry; tags and fusion partners are left off.
UniProt Q9BUA3: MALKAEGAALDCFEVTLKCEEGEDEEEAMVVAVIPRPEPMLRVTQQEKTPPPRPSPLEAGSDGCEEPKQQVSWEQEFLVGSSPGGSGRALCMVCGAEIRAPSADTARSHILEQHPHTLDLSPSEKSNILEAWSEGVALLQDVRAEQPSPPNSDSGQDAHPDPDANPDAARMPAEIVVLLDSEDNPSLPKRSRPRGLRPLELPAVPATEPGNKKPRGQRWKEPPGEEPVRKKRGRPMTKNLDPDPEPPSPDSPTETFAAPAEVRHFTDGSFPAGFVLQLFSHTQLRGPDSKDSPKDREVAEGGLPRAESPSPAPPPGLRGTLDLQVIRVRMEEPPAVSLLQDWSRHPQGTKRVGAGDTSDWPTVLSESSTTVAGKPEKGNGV
UniProt P06748: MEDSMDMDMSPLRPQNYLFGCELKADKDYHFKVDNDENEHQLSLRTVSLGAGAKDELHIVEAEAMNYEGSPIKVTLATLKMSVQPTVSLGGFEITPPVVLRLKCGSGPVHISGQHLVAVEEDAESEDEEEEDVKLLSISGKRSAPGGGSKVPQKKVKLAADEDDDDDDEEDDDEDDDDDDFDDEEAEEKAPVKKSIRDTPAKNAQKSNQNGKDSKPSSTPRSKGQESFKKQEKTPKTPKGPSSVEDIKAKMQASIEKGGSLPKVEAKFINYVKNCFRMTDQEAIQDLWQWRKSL
UniProt Q01105: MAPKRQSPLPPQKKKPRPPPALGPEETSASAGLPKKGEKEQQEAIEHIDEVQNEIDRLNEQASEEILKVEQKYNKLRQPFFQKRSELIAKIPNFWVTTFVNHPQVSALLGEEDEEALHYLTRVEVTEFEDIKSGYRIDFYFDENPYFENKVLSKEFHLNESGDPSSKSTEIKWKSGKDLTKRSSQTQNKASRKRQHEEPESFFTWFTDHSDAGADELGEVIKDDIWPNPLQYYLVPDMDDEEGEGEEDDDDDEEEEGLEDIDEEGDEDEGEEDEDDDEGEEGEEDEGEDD

T2: FLAG-tagged hTRMT2A WT (human) (UniProt Q8IZ69)
T2 sequence: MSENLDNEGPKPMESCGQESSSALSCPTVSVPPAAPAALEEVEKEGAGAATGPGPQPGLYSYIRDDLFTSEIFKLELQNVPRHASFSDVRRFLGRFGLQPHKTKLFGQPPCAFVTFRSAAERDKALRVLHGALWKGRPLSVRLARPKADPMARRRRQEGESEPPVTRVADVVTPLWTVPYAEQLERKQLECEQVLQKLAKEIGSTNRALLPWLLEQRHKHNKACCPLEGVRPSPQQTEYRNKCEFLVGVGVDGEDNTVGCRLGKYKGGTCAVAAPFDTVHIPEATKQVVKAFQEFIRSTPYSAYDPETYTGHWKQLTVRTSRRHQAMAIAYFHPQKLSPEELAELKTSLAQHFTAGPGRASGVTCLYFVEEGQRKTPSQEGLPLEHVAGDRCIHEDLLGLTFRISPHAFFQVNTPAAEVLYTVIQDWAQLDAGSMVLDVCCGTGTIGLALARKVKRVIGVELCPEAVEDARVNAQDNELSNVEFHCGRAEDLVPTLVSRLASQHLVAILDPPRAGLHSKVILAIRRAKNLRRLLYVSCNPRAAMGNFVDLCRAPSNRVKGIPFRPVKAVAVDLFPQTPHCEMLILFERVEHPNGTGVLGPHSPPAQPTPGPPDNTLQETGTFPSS

T3: FLAG-BirA*-tagged hTRMT2A WT (tRNA methyltransferase 2 homolog A) (human) (UniProt Q8IZ69)
T3 sequence: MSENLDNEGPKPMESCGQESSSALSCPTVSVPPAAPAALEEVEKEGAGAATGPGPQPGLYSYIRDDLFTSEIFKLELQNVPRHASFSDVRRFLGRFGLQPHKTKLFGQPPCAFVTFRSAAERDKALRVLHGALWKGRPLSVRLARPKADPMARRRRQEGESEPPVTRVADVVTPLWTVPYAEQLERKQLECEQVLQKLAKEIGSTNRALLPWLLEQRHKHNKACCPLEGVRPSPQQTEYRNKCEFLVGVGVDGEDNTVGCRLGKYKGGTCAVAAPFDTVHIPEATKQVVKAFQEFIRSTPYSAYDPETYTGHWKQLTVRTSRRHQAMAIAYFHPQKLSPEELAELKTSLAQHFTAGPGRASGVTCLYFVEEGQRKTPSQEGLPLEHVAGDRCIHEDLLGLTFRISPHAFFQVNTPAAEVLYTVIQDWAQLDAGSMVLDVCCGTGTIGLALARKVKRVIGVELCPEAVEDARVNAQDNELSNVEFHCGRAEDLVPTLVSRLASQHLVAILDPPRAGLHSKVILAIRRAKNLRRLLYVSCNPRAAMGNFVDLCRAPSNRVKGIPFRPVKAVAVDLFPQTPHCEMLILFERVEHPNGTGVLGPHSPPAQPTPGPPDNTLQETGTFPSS

T4: FLAG-BirA*-tagged hTRMT2A CDM (catalytic death mutant) (human) (UniProt Q8IZ69)
T4 sequence: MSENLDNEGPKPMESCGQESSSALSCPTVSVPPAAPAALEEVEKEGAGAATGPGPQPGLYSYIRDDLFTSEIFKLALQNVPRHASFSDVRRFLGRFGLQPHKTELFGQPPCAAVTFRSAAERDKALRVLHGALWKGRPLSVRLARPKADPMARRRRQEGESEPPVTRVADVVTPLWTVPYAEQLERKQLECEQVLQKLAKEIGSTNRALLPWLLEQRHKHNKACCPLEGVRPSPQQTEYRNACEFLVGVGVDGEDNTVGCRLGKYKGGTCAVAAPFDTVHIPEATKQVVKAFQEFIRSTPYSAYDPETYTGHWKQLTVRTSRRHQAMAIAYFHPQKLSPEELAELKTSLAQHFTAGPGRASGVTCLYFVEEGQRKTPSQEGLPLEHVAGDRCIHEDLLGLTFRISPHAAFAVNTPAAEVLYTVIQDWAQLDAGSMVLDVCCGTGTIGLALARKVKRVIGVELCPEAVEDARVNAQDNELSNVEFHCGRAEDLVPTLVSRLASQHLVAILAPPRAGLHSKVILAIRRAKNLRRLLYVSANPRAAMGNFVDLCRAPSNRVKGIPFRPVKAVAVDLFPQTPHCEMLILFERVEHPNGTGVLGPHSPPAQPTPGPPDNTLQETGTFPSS


Key:
[1] = biological target: T1, FLAG-tagged hTRMT2A CDM (catalytic death mutant) (human); test: affinity purification with mass spectrometry; Co-IP from HEK 293T lysate: doxycycline-induced FLAG-tagged hTRMT2A WT or CDM captured on anti-FLAG M2 magnetic beads, 1 h at 4°C, washes with 250 mM NaCl, LC-MS/MS; FLAG tag alone as background; five replicates
[2] = biological target: T2, FLAG-tagged hTRMT2A WT (human); test: as above
[3] = biological target: T3, FLAG-BirA*-tagged hTRMT2A WT (tRNA methyltransferase 2 homolog A) (human); test: proximity labelling; BioID in HEK 293T cells: doxycycline-induced BirA*-tagged hTRMT2A WT or CDM, 50 uM biotin for 16-18 h, biotinylated proteins captured on streptavidin magnetic beads, LC-MS/MS; BirA* tag alone as background; five replicates
[4] = biological target: T4, FLAG-BirA*-tagged hTRMT2A CDM (catalytic death mutant) (human); test: as above
[5] = biological target: T3, FLAG-BirA*-tagged hTRMT2A WT (tRNA methyltransferase 2 homolog A) (human); test: as above; remark: listed apart in the source
[6] = biological target: T4, FLAG-BirA*-tagged hTRMT2A CDM (catalytic death mutant) (human); test: as above; remark: listed apart in the source

Molecule	binding [1]	binding [2]	binding [3]	binding [4]	binding [5]	binding [6]
SPINDOC (from UniProt Q9BUA3 1-381)	binds	binds	binds	binds		
NPM1 (from UniProt P06748 1-294)		binds	binds			
SET (from UniProt Q01105 1-290)		binds	binds			
RISC loading complex subunit TARBP2 (protein, UniProt Q15633 1-366) MSEEEQGSGTTTGCGLPSIEQMLAANPGKTPISLLQEYGTRIGKTPVYDLLKAEGQAHQPNFTFRVTVGDTSCTGQGPSKKAAKHKAAEVALKHLKGGSMLEPALEDSSSFSPLDSSLPEDIPVFTAAAAATPVPSVVLTRSPPMELQPPVSPQQSECNPVGALQELVVQKGWRLPEYTVTQESGPAHRKEFTMTCRVERFIEIGSGTSKKLAKRNAAAKMLLRVHTVPLDARDGNEVEPDDDHFSIGVGSRLDGLRNRGPGCTWDSLRNSVGEKILSLRSCSLGSLGALGPACCRVLSELSEEQAFHVSYLDIEELSLSGLCQCLVELSTQPATVCHGSATTREAARGEAARRALQYLKIMAGSK	binds	binds			binds	binds
LARP7 (protein, UniProt Q4G0J3 1-582) METESGNQEKVMEEESTEKKKEVEKKKRSRVKQVLADIAKQVDFWFGDANLHKDRFLREQIEKSRDGYVDISLLVSFNKMKKLTTDGKLIARALRSSAVVELDLEGTRIRRKKPLGERPKDEDERTVYVELLPKNVNHSWIERVFGKCGNVVYISIPHYKSTGDPKGFAFVEFETKEQAAKAIEFLNNPPEEAPRKPGIFPKTVKNKPIPALRVVEEKKKKKKKKGRMKKEDNIQAKEENMDTSNTSISKMKRSRPTSEGSDIESTEPQKQCSKKKKKRDRVEASSLPEVRTGKRKRSSSEDAESLAPRSKVKKIIQKDIIKEASEASKENRDIEISTEEEKDTGDLKDSSLLKTKRKHKKKHKERHKMGEEVIPLRVLSKSEWMDLKKEYLALQKASMASLKKTISQIKSESEMETDSGVPQNTGMKNEKTANREECRTQEKVNATGPQFVSGVIVKIISTEPLPGRKQVRDTLAAISEVLYVDLLEGDTECHARFKTPEDAQAVINAYTEINKKHCWKLEILSGDHEQRYWQKILVDRQAKLNQPREKKRGTEKLITKAEKIRLAKTQQASKHIRFSEYD		binds			binds	
PPM1G (protein, UniProt O15355 1-546) MGAYLSQPNTVKCSGDGVGAPRLPLPYGFSAMQGWRVSMEDAHNCIPELDSETAMFSVYDGHGGEEVALYCAKYLPDIIKDQKAYKEGKLQKALEDAFLAIDAKLTTEEVIKELAQIAGRPTEDEDEKEKVADEDDVDNEEAALLHEEATMTIEELLTRYGQNCHKGPPHSKSGGGTGEEPGSQGLNGEAGPEDSTRETPSQENGPTAKAYTGFSSNSERGTEAGQVGEPGIPTGEAGPSCSSASDKLPRVAKSKFFEDSEDESDEAEEEEEDSEECSEEEDGYSSEEAENEEDEDDTEEAEEDDEEEEEEMMVPGMEGKEEPGSDSGTTAVVALIRGKQLIVANAGDSRCVVSEAGKALDMSYDHKPEDEVELARIKNAGGKVTMDGRVNGGLNLSRAIGDHFYKRNKNLPPEEQMISALPDIKVLTLTDDHEFMVIACDGIWNVMSSQEVVDFIQSKISQRDENGELRLLSSIVEELLDQCLAPDTSGDGTGCDNMTCIIICFKPRNTAELQPESGKRKLEEVLSTEGAEENGNSDKKKKAKRD		binds			binds	
UPF1 (protein, UniProt Q92900 1-1129) MSVEAYGPSSQTLTFLDTEEAELLGADTQGSEFEFTDFTLPSQTQTPPGGPGGPGGGGAGGPGGAGAGAAAGQLDAQVGPEGILQNGAVDDSVAKTSQLLAELNFEEDEEDTYYTKDLPIHACSYCGIHDPACVVYCNTSKKWFCNGRGNTSGSHIVNHLVRAKCKEVTLHKDGPLGETVLECYNCGCRNVFLLGFIPAKADSVVVLLCRQPCASQSSLKDINWDSSQWQPLIQDRCFLSWLVKIPSEQEQLRARQITAQQINKLEELWKENPSATLEDLEKPGVDEEPQHVLLRYEDAYQYQNIFGPLVKLEADYDKKLKESQTQDNITVRWDLGLNKKRIAYFTLPKTDSGNEDLVIIWLRDMRLMQGDEICLRYKGDLAPLWKGIGHVIKVPDNYGDEIAIELRSSVGAPVEVTHNFQVDFVWKSTSFDRMQSALKTFAVDETSVSGYIYHKLLGHEVEDVIIKCQLPKRFTAQGLPDLNHSQVYAVKTVLQRPLSLIQGPPGTGKTVTSATIVYHLARQGNGPVLVCAPSNIAVDQLTEKIHQTGLKVVRLCAKSREAIDSPVSFLALHNQIRNMDSMPELQKLQQLKDETGELSSADEKRYRALKRTAERELLMNADVICCTCVGAGDPRLAKMQFRSILIDESTQATEPECMVPVVLGAKQLILVGDHCQLGPVVMCKKAAKAGLSQSLFERLVVLGIRPIRLQVQYRMHPALSAFPSNIFYEGSLQNGVTAADRVKKGFDFQWPQPDKPMFFYVTQGQEEIASSGTSYLNRTEAANVEKITTKLLKAGAKPDQIGIITPYEGQRSYLVQYMQFSGSLHTKLYQEVEIASVDAFQGREKDFIILSCVRANEHQGIGFLNDPRRLNVALTRARYGVIIVGNPKALSKQPLWNHLLNYYKEQKVLVEGPLNNLRESLMQFSKPRKLVNTINPGARFMTTAMYDAREAIIPGSVYDRSSQGRPSSMYFQTHDQIGMISAGPSHVAAMNIPIPFNLVMPPMPPPGYFGQANGPAAGRGTPKGKTGRGGRQKNRFGLPGPSQTNLPNSQASQDVASQPFSQGALTQGYISMSQPSQMSQPGLSQPELSQDSYLGDEFKSQIDVALSQDSTYQGERAYQHGGVTGLSQY		binds			binds	
